Experimental data: the supplement of paper PMC2577665
Single values of this set are uncertain.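 In each well, ERalpha-negative HeLa cells were transfected with ERalpha, a reporter bearing two estrogen response elements, and one overexpressed, poorly characterized human cDNA. Genes reducing signal to the BRCA1 positive control level (roughly 0.6 of empty vector) or below were scored as repressor hits.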

What follows are sequences tested on ERE-luciferase reporter with exogenous ERalpha in HeLa cells (assay: relative ERE luciferase activity (Firefly/Renilla) upon cDNA overexpression, relative to empty vector (fold of empty vector); higher = stronger ERalpha transactivation (less repression)). Conditions: 17beta-estradiol: 10 nM; 12 h.
In the case of “MPTVISASVAPRTAAEPRSPGPVPHPAQSKATEAGGGNPSGIYSAIISRNFPIIGVKEKTFEQLHKKCLEKKVLYVDPEFPPDETSLFYSQKFPIQFVWKRPPEICENPRFIIDGANRTDICQGELGDCWFLAAIACLTLNQHLLFRVIPHDQSFIENYAGIFHFQFWRYGEWVDVVIDDCLPTYNNQLVFTKSNHRNEFWSALLEKAYAKLHGSYEALKGGNTTEAMEDFTGGVAEFFEIRDAPSDMYKIMKKAIERGSLMGCSIDDGTNMTYGTSPSGLNMGELIARMVRNMDNSLLQDSDLDPRGSDERPTRTIIPVQYETRMACGLVRGHAYSVTGLDEVPFKGEKVKLVRLRNPWGQVEWNGSWSDRWKDWSFVDKDEKARLQHQVTEDGEFWMSYEDFIYHFTKLEICNLTADALQSDKLQTWTVSVNEGRWVRGCSAGGCRNFPDTFWTNPQYRLKLLEEDDDPDDSEVICSFLVALMQKNRRKDRKLGASLFTIGFAIYEVPKEMHGNKQHLQKDFFLYNASKARSKTYINMREVSQRFRLPPSEYVIVPSTYEPHQEGEFILRVFSEKRNLSEEVENTISVDRPVKKKKTKPIIFVSDRANSNKELGVDQESEEGKGKTSPDKQKQSPQPQPGSSDQESEEQQQFRNIFKQIAGDDMEICADELKKVLNTVVNKHKDLKTHGFTLESCRSMIALMDTDGSGKLNLQEFHHLWNKIKAWQKIFKHYDTDQSGTINSYEMRNAVNDAGFHLNNQLYDIITMRYADKHMNIDFDSFICCFVRLEGMFRAFHAFDKDGDGIIKLNVLEWLQLTMYA [CAPN3]”, the “relative ERE luciferase activity” value is reported as 1.12.
With “MPVKKKRKSPGVAAAVAEDGGLKKCKISSYCRSQPPARLISGEEHFSSKKCLAWFYEYAGPDEVVGPEGMEKFCEDIGVEPENIIMLVLAWKLEAESMGFFTKEEWLKGMTSLQCDCTEKLQNKFDFLRSQLNDISSFKNIYRYAFDFARDKDQRSLDIDTAKSMLALLLGRTWPLFSVFYQYLEQSKYRVMNKDQWYNVLEFSRTVHADLSNYDEDGAWPVLLDEFVEWQKVRQTS [DCUN1D5]” the “relative ERE luciferase activity” value was 1.03.
“MQESQETHISNHLDEVVAAVSITHRKKFQNKLLQTALFQPPREKLHLCEEKAKSYSNSHEYKQAVHELVRCVALTRICYGDSHWKLAEAHVNLAQGYLQLKGLSLQAKQHAEKARQILANSIVPPYSENTDVFKFSIELFHTMGRALLSLQKFKEAAENLTKAERLSKELLQCGRIIKEEWIEIEARIRLSFAQVYQGQKKSKEALSHYQAALEYVEISKGETSRECVPILRELAGVEQALGLHDVSINHFLQAHLIILSRSPSQVEAADSAHIVAHAAVASGRHEHHDVAEQYFQESMAHLKDSEGMGRTKFLSIQDEFCHFLQMTGQKERATSILRESLEAKVEAFGDFSPEVAETYRLLGGADLAQGNHSGARKKLKKCLQIQTLLYGPQDKRTLATQQAMGMLSTAPKVASKPRQASKAKVAFCTSIPQDTLLGKARPGTTAD [TTC23]” was tested, and the “relative ERE luciferase activity” value was 0.89.
In the case of “MQKPCKENEGKPKCSVPKREEKRPYGEFERQQTEGNFRQRLLQSLEEFKEDIDYRHFKDEEMTREGDEMERCLEEIRGLRKKFRALHSNHRHSRDRPYPI [TCEAL7]”, the “relative ERE luciferase activity” value is reported as 1.11.
“MQKSCEENEGKPQNMPKAEEDRPLEDVPQEAEGNPQPSEEGVSQEAEGNPRGGPNQPGQGFKEDTPVRHLDPEEMIRGVDELERLREEIRRVRNKFVMMHWKQRHSRSRPYPVCFRP [TCEAL8]” was tested, and the “relative ERE luciferase activity” value was 1.14.
“MQPPGPPPAYAPTNGDFTFVSSADAEDLSGSIASPDVKLNLGGDFIKESTATTFLRQRGYGWLLEVEDDDPEDNKPLLEELDIDLKDIYYKIRCVLMPMPSLGFNRQVVRDNPDFWGPLAVVLFFSMISLYGQFRVVSWIITIWIFGSLTIFLLARVLGGEVAYGQVLGVIGYSLLPLIVIAPVLLVVGSFEVVSTLIKLFGVFWAAYSAASLLVGEEFKTKKPLLIYPIFLLYIYFLSLYTGV [YIPF4]” was tested, and the “relative ERE luciferase activity” value was 1.32.
With “MRAVLAREMDGRRVLGRFWSGWRRGLGVRPVPEDAGFGTEARHQRQPRGSCQRSGPLGDQPFAGLLPKNLSREELVDALRAAVVDRKGPLVTLNKPQGLPVTGKPGELTLFSVLPELSQSLGLREQELQVVRASGKESSGLVLLSSCPQTASRLQKYFTHARRAQRPTATYCAVTDGIPAASEGKIQAALKLEHIDGVNLTVPVKAPSRKDILEGVKKTLSHFRVVATGSGCALVQLQPLTVFSSQLQVHMVLQLCPVLGDHMYSARVGTVLGQRFLLPAENNKPQRQVLDEALLRRLHLTPSQAAQLPLHLHLHRLLLPGTRARDTPVELLAPLPPYFSRTLQCLGLRLQ [RPUSD3]” the “relative ERE luciferase activity” value was 1.25.
For “MRENVVVSNMERESGKPVAVVAVVTEPWFTQRYREYLQRQKLFDTQHRVEKMPDGSVALPVLGETLPEQHLQELRNRVAPGSPCMLTQLPDPVPSKRAQGCSPAQKLCLEVSRWVEGRGVKWSAELEADLPRSWQRHGNLLLLSEDCFQAKQWKNLGPELWETVALALGVQRLAKRGRVSPDGTRTPAVTLLLGDHGWVEHVDNGIRYKFDVTQCMFSFGNITEKLRVASLSCAGEVLVDLYAGIGYFTLPFLVHAGAAFVHACEWNPHAVVALRNNLEINGVADRCQIHFGDNRKLKLSNIADRVILGLIPSSEEGWPIACQVLRQDAGGILHIHQNVESFPGKNLQALGVSKVEKEHWLYPQQITTNQWKNGATRDSRGKMLSPATKPEWQRWAESAETRIATLLQQVHGKPWKTQILHIQPVKSYAPHVDHIVLDLECCPCPSVG [TRMT12]”, the “relative ERE luciferase activity” value was 1.17.
With “MRHEAPMQMASAQDARYGQKDSSDQNFDYMFKLLIIGNSSVGKTSFLFRYADDSFTSAFVSTVGIDFKVKTVFKNEKRIKLQIWDTAGQERYRTITTAYYRGAMGFILMYDITNEESFNAVQDWSTQIKTYSWDNAQVILVGNKCDMEDERVISTERGQHLGEQLGFEFFETSAKDNINVKQTFERLVDIICDKMSESLETDPAITAAKQNTRLKETPPPPQPNCAC [RAB3C]” the “relative ERE luciferase activity” value was 1.07.
In the case of “MRLIQNMCTIAEYPAPGNAAASDCCVGAAGRRLVKIAVVGASGVGKTALVVRFLTKRFIGDYERNAGNLYTRQVQIEGETLALQVQDTPGIQVHENSLSCSEQLNRCIRWADAVVIVFSITDYKSYELISQLHQHVQQLHLGTRLPVVVVANKADLLHIKQVDPQLGLQLASMLGCSFYEVSVSENYNDVYSAFHVLCKEVSHKQQPSSTPEKRRTSLIPRPKSPNMQDLKRRFKQALSAKVRTVTSV [RASL11B]”, the “relative ERE luciferase activity” value is reported as 1.12.
With “MRLPLSHSPEHVEMALLSNILAAYSFVSENPERAALYFVSGVCIGLVLTLAALVIRISCHTDCRRRPGKKFLQDRESSSDSSDSEDGSEDTVSDLSVRRHRRFERTLNKNVFTSAEELERAQRLEERERIIREIWMNGQPEVPGTRSLNRYY [TMEM166]” the “relative ERE luciferase activity” value was 3.26.
With “MRSGEELDGFEGEASSTSMISGASSPYQPTTEPVSQRRGLAGLRCDPDYLRGALGRLKVAQVILALIAFICIETIMACSPCEGLYFFEFVSCSAFVVTGVLLIMFSLNLHMRIPQINWNLTDLVNTGLSAFLFFIASIVLAALNHRAGAEIAAVIFGFLATAAYAVNTFLAVQKWRVSVRQQSTNDYIRARTESRDVDSRPEIQRLDTFSYSTNVTVRKKSPTNLLSLNHWQLA [CMTM4]” the “relative ERE luciferase activity” value was 1.16.
With “MRVTLATIAWMVSFVSNYSHTANILPDIENEDFIKDCVRIHNKFRSEVKPTASDMLYMTWDPALAQIAKAWASNCQFSHNTRLKPPHKLHPNFTSLGENIWTGSVPIFSVSSAITNWYDEIQDYDFKTRICKKVCGHYTQVVWADSYKVGCAVQFCPKVSGFDALSNGAHFICNYGPGGNYPTWPYKRGATCSACPNNDKCLDNLCVNRQRDQVKRYYSVVYPGWPIYPRNRYTSLFLIVNSVILILSVIITILVQHKYPNLVLLD [GLIPR1]” the “relative ERE luciferase activity” value was 1.08.
In the case of “MSASVVSVISRFLEEYLSSTPQRLKLLDAYLLYILLTGALQFGYCLLVGTFPFNSFLSGFISCVGSFILAVCLRIQINPQNKADFQGISPERAFADFLFASTILHLVVMNFVG [DAD1]”, the “relative ERE luciferase activity” value is reported as 0.799.
With “MSCVLGGVIPLGLLFLVCGSQGYLLPNVTLLEELLSKYQHNESHSRVRRAIPREDKEEILMLHNKLRGQVQPQASNMEYMTWDDELEKSAAAWASQCIWEHGPTSLLVSIGQNLGAHWGRYRSPGFHVQSWYDEVKDYTYPYPSECNPWCPERCSGPMCTHYTQIVWATTNKIGCAVNTCRKMTVWGEVWENAVYFVCNYSPKGNWIGEAPYKNGRPCSECPPSYGGSCRNNLCYREETYTPKPETDEMNEVETAPIPEENHVWLQPRVMRPTKPKKTSAVNYMTQVVRCDTKMKDRCKGSTCNRYQCPAGCLNHKAKIFGTLFYESSSSICRAAIHYGILDDKGGLVDITRNGKVPFFVKSERHGVQSLSKYKPSSSFMVSKVKVQDLDCYTTVAQLCPFEKPATHCPRIHCPAHCKDEPSYWAPVFGTNIYADTSSICKTAVHAGVISNESGGDVDVMPVDKKKTYVGSLRNGVQSESLGTPRDGKAFRIFAVRQ [CRISPLD2]” the “relative ERE luciferase activity” value was 1.27.
“MSDCYTELEKAVIVLVENFYKYVSKYSLVKNKISKSSFREMLQKELNHMLSDTGNRKAADKLIQNLDANHDGRISFDEYWTLIGGITGPIAKLIHEQEQQSSS [S100A16]” was tested, and the “relative ERE luciferase activity” value was 1.27.
“MSEQEAQAPGGRGLPPDMLAEQVELWWSQQPRRSALCFVVAVGLVAGCGAGGVALLSTTSSRSGEWRLATGTVLCLLALLVLVKQLMSSAVQDMNCIRQAHHVALLRSGGGADALVVLLSGLVLLVTGLTLAGLAAAPAPARPLAAMLSVGIALAALGSLLLLGLLLYQVGVSGHCPSICMATPSTHSGHGGHGSIFSISGQLSAGRRHETTSSIASLI [TMEM125]” was tested, and the “relative ERE luciferase activity” value was 1.12.
In the case of “MSFRKVVRQSKFRHVFGQPVKNDQCYEDIRVSRVTWDSTFCAVNPKFLAVIVEASGGGAFLVLPLSKTGRIDKAYPTVCGHTGPVLDIDWCPHNDEVIASGSEDCTVMVWQIPENGLTSPLTEPVVVLEGHTKRVGIIAWHPTARNVLLSAGCDNVVLIWNVGTAEELYRLDSLHPDLIYNVSWNHNGSLFCSACKDKSVRIIDPRRGTLVAEREKAHEGARPMRAIFLADGKVFTTGFSRMSERQLALWDPENLEEPMALQELDSSNGALLPFYDPDTSVVYVCGKGDSSIRYFEITEEPPYIHFLNTFTSKEPQRGMGSMPKRGLEVSKCEIARFYKLHERKCEPIVMTVPRKSDLFQDDLYPDTAGPEAALEAEEWVSGRDADPILISLREAYVPSKQRDLKISRRNVLSDSRPAMAPGSSHLGAPASTTTAADATPSGSLARAGEAGKLEEVMQELRALRALVKEQGDRICRLEEQLGRMENGDA [CORO1B]”, the “relative ERE luciferase activity” value is reported as 0.914.
“MSFVECPYHSPAERLVAEADEGGPSAITGMGLCFRCLLFSFSGRSGVEGGRVDLNVFGSLGLQPWIGSSRCWGGPCSSALRCGWFSSWPPPSKSAIPIGGGSRGAGRVSRWPPPHWLEAWRVSPLPLSPLSPATFGRGFIAVAVIPGLWARGRGCSSDRLPRPAGPARRQFQAASLLTRGWGRAWPWKQILKELDECYERFSRETDGAQKRRMLHCVQRALIRSQELGDEKIQIVSQMVELVENRTRQVDSHVELFEAQQELGDTAGNSGKAGADRPKGEAAAQADKPNSKRSRRQRNNENRENASSNHDHDDGASGTPKEKKAKTSKKKKRSKAKAEREASPADLPIDPNEPTYCLCNQVSYGEMIGCDNDECPIEWFHFSCVGLNHKPKGKWYCPKCRGENEKTMDKALEKSKKERAYNR [ING1]” was tested, and the “relative ERE luciferase activity” value was 3.
“MSLCSACTSPASHQLLLNCQGQTVAKSHSSADAGVSLVSGRWCAWWPEHCSESMFPSQHPVLSSNLADSSGQGRSPAGAHPALCPFHKSPWFPHFPQILPREWSWCGPERPAGCSLGLKAEAALVGKK [C6orf208]” was tested, and the “relative ERE luciferase activity” value was 1.05.
